Data: US20080299114A1
These are yes or no findings as the source states them, for the method shown. Some binding calls cover weakened binding; strength is not graded here.

By UniProt entry, the sequences of proteins in these tests, tags left out. Where a name states a change or a piece, a line headed by the entry shows the natural chain unless it says otherwise.
UniProt P00751: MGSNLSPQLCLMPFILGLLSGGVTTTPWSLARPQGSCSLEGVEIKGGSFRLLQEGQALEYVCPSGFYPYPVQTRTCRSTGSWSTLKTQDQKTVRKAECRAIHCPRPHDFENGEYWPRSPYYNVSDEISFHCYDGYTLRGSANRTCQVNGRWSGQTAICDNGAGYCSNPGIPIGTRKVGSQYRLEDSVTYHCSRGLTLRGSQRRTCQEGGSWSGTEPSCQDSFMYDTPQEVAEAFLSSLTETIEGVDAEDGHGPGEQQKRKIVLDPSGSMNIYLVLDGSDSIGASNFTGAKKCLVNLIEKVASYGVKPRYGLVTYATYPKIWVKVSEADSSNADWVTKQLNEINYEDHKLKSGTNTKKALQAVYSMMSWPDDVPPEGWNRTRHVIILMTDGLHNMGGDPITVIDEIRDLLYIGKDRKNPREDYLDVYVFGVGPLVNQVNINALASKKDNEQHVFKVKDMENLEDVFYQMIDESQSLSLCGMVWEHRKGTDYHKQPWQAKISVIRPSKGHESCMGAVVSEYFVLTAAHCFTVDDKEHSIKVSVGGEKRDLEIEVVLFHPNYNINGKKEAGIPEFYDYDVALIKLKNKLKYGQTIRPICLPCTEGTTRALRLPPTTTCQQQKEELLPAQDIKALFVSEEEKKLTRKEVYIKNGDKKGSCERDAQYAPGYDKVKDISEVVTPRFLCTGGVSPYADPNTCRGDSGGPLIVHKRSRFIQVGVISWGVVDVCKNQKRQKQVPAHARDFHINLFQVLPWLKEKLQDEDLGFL

What was measured:
[1] = target: recombinant human factor B (human) (UniProt P00751); test: ELISA
[2] = target: recombinant human factor B (human) (UniProt P00751); test: dilution ELISA on factor B

binding [1]: binds
binding [2]: binds
B1: cloned Fab′ TA003 (Fab, V domains shown)
VH: EVQLQQSGPELVKPGASVKIPCKASGYTFTDYNMDWVKQSHGKSLEWIGDINPNNGGTIYNQKFKGKATLTVDKSSSTAYMELRSLTSEDTAVYYCARGYYSNSAWFAYWGQGTLVTVSA
VL: DIVMSQSPSSLAVSAGEKVTMSCKSSQSLLNSRTRKNYLAWYQQKPGQSPKLLIYWASTRESGVPDRFTGSGSGTDFTLTISSVQAEDLAVYYCKQSYNLPWTFGGGTKLEIKR
